Assay results from the supplement of paper PMC10849652.
The list shows a part of the results.

By UniProt entry, the sequences of proteins in these tests, tags left out. Where a name states a change or a piece, a line headed by the entry shows the natural chain unless it says otherwise.
UniProt Q9H3H3: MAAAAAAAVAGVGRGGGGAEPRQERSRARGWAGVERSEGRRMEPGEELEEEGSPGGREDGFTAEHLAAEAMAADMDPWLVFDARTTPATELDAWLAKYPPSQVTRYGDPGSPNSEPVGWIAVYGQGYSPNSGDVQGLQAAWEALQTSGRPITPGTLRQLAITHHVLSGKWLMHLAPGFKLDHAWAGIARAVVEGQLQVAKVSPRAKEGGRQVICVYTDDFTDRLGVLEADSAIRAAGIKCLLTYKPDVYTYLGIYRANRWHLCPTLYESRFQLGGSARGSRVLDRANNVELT
UniProt Q86VP6: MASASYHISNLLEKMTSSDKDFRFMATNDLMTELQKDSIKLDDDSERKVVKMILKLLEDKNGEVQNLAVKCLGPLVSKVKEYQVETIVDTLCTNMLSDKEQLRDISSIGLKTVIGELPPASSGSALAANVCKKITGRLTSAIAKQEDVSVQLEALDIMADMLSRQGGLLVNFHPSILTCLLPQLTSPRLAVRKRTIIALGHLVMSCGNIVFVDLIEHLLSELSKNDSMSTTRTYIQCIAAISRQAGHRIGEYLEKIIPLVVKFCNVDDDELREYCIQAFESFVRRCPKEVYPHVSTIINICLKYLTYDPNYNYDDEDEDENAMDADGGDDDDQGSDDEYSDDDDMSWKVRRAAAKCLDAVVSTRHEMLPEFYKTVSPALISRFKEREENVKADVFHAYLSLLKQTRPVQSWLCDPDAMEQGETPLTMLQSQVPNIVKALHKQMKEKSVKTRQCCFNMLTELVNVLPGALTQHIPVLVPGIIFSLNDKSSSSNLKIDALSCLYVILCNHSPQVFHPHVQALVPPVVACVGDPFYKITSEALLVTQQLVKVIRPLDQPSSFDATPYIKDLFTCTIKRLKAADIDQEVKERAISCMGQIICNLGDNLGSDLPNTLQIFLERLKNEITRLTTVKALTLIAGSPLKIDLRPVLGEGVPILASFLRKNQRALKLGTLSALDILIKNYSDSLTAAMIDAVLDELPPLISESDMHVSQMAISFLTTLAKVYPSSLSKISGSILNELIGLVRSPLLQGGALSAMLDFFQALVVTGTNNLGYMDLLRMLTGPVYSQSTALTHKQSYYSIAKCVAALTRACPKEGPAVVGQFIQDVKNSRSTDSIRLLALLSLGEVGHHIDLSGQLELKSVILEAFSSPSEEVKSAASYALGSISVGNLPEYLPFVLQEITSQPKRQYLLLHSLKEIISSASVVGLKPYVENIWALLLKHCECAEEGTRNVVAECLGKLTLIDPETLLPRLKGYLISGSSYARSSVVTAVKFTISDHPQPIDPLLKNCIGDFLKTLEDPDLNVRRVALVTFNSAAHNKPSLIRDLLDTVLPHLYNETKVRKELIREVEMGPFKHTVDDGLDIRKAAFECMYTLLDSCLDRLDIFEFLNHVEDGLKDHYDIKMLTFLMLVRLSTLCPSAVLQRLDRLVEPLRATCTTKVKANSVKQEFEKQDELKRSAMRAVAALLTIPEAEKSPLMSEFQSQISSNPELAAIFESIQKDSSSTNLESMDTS
UniProt Q9Y6W3: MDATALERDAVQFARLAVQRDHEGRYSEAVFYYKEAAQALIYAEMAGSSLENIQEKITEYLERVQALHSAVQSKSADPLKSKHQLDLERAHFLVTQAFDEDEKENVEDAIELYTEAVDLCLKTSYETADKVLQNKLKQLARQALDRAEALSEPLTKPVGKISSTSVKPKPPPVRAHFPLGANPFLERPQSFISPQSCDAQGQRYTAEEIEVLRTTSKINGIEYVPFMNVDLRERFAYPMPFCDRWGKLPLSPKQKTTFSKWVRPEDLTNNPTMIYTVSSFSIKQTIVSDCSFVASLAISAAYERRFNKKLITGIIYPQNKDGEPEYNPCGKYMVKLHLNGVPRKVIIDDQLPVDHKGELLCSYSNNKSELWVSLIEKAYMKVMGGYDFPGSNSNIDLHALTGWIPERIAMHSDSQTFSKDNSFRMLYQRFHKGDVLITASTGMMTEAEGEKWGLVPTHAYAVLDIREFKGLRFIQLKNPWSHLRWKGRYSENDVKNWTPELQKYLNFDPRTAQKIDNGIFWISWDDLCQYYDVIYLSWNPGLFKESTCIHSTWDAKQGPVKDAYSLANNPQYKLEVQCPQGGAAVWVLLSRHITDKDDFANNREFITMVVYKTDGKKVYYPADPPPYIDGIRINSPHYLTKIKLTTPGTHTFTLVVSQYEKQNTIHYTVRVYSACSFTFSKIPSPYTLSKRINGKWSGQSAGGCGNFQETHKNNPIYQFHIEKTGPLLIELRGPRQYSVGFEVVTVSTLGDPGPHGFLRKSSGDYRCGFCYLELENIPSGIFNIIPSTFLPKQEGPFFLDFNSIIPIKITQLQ
UniProt Q8WVQ1: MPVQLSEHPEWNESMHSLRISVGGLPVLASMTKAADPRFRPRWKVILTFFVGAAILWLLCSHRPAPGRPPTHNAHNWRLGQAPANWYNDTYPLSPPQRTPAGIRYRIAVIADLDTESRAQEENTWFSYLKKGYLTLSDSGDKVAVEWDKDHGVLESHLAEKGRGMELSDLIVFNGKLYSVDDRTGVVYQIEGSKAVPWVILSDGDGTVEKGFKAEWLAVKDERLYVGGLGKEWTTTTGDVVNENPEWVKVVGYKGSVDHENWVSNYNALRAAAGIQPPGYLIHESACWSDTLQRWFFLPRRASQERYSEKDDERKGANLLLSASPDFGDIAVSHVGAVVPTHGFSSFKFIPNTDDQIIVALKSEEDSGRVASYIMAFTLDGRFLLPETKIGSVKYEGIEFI
UniProt Q9P1Z2: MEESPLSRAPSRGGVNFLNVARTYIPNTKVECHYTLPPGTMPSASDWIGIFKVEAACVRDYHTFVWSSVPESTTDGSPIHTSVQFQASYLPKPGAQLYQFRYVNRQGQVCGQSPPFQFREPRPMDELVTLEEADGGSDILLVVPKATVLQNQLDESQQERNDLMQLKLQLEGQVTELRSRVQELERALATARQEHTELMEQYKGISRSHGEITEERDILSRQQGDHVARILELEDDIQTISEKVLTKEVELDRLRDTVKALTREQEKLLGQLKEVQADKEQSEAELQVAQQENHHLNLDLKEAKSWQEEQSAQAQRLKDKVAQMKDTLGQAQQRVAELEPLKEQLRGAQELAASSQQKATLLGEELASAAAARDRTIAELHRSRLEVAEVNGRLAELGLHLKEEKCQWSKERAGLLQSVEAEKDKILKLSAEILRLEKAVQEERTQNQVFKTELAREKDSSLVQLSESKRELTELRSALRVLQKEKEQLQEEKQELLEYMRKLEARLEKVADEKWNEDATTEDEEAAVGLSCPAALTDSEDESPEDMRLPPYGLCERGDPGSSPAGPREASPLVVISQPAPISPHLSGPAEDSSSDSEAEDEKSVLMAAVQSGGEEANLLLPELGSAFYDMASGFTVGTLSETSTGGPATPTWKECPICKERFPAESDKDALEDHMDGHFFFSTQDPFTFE
UniProt Q13895: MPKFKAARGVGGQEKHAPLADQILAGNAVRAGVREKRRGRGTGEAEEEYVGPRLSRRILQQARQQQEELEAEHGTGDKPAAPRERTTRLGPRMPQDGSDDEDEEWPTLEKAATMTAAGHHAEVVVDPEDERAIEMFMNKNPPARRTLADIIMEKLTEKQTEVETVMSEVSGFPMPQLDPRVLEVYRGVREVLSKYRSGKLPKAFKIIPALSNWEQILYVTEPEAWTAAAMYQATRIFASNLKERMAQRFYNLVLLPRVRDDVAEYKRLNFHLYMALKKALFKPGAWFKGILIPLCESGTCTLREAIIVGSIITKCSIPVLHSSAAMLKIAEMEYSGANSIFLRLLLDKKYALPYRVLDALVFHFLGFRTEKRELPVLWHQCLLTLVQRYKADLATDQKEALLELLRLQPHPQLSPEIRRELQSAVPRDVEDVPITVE
UniProt Q9Y2V0: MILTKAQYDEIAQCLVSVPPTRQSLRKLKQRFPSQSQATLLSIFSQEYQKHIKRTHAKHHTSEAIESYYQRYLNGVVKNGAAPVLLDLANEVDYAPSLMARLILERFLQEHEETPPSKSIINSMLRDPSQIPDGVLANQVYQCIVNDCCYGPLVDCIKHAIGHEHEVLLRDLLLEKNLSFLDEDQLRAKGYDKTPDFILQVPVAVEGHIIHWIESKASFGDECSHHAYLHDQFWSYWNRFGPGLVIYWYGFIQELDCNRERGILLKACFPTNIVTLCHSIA
UniProt Q6ZSJ8: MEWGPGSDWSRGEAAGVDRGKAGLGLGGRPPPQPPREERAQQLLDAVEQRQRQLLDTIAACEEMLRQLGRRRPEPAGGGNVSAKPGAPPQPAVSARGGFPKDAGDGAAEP
UniProt Q07021: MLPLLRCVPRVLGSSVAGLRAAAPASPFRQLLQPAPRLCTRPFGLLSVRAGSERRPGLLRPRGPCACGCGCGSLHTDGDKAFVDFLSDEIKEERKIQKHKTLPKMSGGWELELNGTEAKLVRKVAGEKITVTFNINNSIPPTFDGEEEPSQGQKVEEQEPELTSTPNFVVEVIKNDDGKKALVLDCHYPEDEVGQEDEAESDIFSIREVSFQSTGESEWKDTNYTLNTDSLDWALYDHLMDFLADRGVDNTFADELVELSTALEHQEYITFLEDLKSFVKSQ
UniProt Q13901: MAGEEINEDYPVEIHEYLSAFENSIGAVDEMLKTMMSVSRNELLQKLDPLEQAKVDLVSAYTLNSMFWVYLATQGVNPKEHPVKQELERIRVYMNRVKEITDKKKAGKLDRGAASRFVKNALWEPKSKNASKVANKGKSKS
UniProt P49069: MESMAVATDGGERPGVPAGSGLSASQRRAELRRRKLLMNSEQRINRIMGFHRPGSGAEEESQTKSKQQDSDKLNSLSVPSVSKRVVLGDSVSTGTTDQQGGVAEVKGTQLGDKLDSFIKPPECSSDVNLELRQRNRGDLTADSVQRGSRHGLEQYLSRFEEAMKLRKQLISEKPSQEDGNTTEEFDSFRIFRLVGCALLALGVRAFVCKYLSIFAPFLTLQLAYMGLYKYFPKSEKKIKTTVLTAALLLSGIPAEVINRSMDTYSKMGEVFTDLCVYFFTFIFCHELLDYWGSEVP
UniProt O43684, whole entry, looked up: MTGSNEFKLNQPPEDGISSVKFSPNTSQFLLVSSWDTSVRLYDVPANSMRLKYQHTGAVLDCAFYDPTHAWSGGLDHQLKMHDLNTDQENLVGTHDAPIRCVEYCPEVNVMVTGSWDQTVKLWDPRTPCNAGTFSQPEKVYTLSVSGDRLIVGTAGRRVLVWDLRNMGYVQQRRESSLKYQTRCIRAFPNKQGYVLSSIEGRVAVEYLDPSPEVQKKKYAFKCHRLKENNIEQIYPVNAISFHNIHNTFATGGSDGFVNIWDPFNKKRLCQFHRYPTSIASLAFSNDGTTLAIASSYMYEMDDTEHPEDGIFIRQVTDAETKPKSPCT
UniProt A6NDU8: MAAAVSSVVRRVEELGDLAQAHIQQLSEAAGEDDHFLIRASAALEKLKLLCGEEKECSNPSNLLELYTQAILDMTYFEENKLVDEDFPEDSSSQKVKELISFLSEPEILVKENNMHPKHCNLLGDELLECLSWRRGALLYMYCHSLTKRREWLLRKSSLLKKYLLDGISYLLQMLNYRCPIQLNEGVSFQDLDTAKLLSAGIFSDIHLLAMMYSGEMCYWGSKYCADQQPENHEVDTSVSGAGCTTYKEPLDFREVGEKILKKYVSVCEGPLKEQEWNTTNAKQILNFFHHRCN
UniProt Q8IXQ3: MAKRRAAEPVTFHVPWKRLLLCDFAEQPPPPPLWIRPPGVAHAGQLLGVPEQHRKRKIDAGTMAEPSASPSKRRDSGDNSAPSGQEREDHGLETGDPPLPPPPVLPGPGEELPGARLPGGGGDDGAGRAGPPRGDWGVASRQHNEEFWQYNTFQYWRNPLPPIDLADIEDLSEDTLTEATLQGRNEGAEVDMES
UniProt Q5BKX5: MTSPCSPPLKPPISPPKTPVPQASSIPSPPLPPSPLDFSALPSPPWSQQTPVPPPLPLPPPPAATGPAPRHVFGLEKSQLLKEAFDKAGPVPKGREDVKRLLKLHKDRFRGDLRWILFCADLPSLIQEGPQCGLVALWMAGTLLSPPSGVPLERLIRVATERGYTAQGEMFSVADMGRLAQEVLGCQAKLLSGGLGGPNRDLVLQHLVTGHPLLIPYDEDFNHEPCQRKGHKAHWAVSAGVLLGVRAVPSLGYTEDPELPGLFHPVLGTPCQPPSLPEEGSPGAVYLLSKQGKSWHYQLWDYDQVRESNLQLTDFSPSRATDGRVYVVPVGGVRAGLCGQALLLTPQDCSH
UniProt Q9BV19: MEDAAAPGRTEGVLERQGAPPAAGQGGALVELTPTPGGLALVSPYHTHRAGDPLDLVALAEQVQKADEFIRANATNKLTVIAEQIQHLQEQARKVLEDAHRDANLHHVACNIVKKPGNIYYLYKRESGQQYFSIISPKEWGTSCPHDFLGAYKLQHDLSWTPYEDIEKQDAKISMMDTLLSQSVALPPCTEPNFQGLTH
UniProt Q8N5I9: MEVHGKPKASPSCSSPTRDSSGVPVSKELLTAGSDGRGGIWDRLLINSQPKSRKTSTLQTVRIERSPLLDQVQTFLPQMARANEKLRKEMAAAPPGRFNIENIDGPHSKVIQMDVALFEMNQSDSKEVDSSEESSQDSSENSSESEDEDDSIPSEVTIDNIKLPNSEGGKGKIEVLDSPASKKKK

Columns and labels:
Assay in all cases: log2 fold change, soluble protein after heating vs DMSO (PISA); higher = thermal stabilisation; K562 lysate, 10 uM; active = over 0.2 and 3.5 SD of the protein, either way, in both replicates (recomputed)
lapatinib = compound: CS(=O)(=O)CCNCc1ccc(-c2ccc3ncnc(Nc4ccc(OCc5cccc(F)c5)c(Cl)c4)c3c2)o1 [lapatinib]
Summary of the method: (§1)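 Pellets of K562 cells were dounce-homogenised in PBS pH 7.4 with 1 mM MgCl2, and the crude extract was held at 1 mg/mL protein for a 30 min treatment with 10 μM compound. Aliquots were heated for 3 min over 48°C-58°C and pooled before NP-40 was added to 0.5% at 4°C. The supernatant from 21,000xg for 90 min was quantified by TMTpro 16plex LC-MS/MS with channel sums equalised. Values are reported from duplicates as log-two fold change in thermal stability relative to solvent controls.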

pictilisib = compound: CS(=O)(=O)N1CCN(Cc2cc3nc(-c4cccc5[nH]ncc45)nc(N4CCOCC4)c3s2)CC1 [pictilisib]
Summary of the method: as §1

crizotinib = compound: C[C@@H](Oc1cc(-c2cnn(C3CCNCC3)c2)cnc1N)c1c(Cl)ccc(F)c1Cl [crizotinib]
Summary of the method: as §1

[1] = compound: C[C@H](C1=CC=C(C=C1)C(=O)NC2=C3C=CNC3=NC=C2)N
Summary of the method: as §1

duvelisib = compound: C[C@H](Nc1ncnc2nc[nH]c12)c1cc2cccc(Cl)c2c(=O)n1-c1ccccc1 [duvelisib]
Summary of the method: as §1

gandotinib = compound: Cc1cc(Nc2cc(CN3CCOCC3)c3nc(C)c(Cc4ccc(Cl)cc4F)n3n2)n[nH]1 [gandotinib]
Summary of the method: as §1

tozasertib = compound: Cc1cc(Nc2cc(N3CCN(C)CC3)nc(Sc3ccc(NC(=O)C4CC4)cc3)n2)n[nH]1 [tozasertib]
Summary of the method: as §1

doramapimod = compound: Cc1ccc(-n2nc(C(C)(C)C)cc2NC(=O)Nc2ccc(OCCN3CCOCC3)c3ccccc23)cc1 [doramapimod]
Summary of the method: as §1

bafetinib = compound: Cc1ccc(NC(=O)c2ccc(CN3CC[C@H](N(C)C)C3)c(C(F)(F)F)c2)cc1Nc1nccc(-c2cncnc2)n1 [bafetinib]
Summary of the method: as §1

[2] = compound: Cc1cccc(CC(=O)N2CCc3c2ccc(-c2cn(C)c4ncnc(N)c24)c3F)n1
Summary of the method: as §1

Measured: log2 fold change

C11orf68 isoform 3 (UniProt Q9H3H3)
inactive: lapatinib 0.021 | pictilisib 0.026 | crizotinib -0.032 | [1] -0.039 | duvelisib 0.014 | gandotinib 0.032 | tozasertib -0.003 | doramapimod 0.061 | bafetinib -0.02 | [2] 0.028

CAD (UniProt P27708)
inactive: lapatinib -0.023 | pictilisib -0.02 | crizotinib -0.038 | [1] -0.024 | duvelisib -0.011 | gandotinib -0.019 | tozasertib 0 | doramapimod 0.02 | bafetinib -0.052 | [2] 0.07

CAND1 (UniProt Q86VP6)
inactive: lapatinib -0.008 | pictilisib 0.016 | crizotinib -0.001 | [1] -0.099 | duvelisib 0.029 | gandotinib 0.052 | tozasertib -0.012 | doramapimod 0.009 | bafetinib 0.007 | [2] 0.036

BZW2 (UniProt Q9Y6E2)
inactive: lapatinib -0.022 | pictilisib 0.015 | crizotinib 0.028 | [1] 0.017 | duvelisib -0.018 | gandotinib -0.088 | tozasertib 0.034 | doramapimod -0.001 | bafetinib 0.017 | [2] -0.008

CAPN7 (UniProt Q9Y6W3)
inactive: lapatinib -0.003 | pictilisib -0.026 | crizotinib -0.055 | [1] 0.01 | duvelisib -0.018 | gandotinib -0.016 | tozasertib 0.016 | doramapimod 0.014 | bafetinib -0.021 | [2] 0.012

C2CD2L (UniProt O14523)
inactive: lapatinib -0.077 | pictilisib -0.062 | crizotinib -0.061 | [1] -0.052 | duvelisib -0.096 | gandotinib 0.016 | tozasertib 0.012 | doramapimod 0.004 | bafetinib -0.001 | [2] 0.051

CANT1 (UniProt Q8WVQ1)
inactive: lapatinib -0.006 | pictilisib -0.082 | crizotinib 0.033 | [1] -0.041 | duvelisib -0.041 | gandotinib -0.029 | tozasertib -0.01 | doramapimod 0.031 | bafetinib -0.012 | [2] 0.004

CALCOCO1 (UniProt Q9P1Z2)
inactive: lapatinib -0.007 | pictilisib 0.021 | crizotinib -0.044 | [1] -0.028 | duvelisib 0 | gandotinib 0.05 | tozasertib 0.084 | doramapimod 0.033 | bafetinib -0.053 | [2] -0.008

BYSL (UniProt Q13895)
inactive: lapatinib -0.012 | pictilisib 0.019 | crizotinib -0.007 | [1] 0.023 | duvelisib -0.02 | gandotinib -0.087 | tozasertib 0.004 | doramapimod 0.003 | bafetinib -0.105 | [2] 0.037

C15orf41 (UniProt Q9Y2V0)
inactive: lapatinib -0.078 | pictilisib 0.007 | crizotinib -0.033 | [1] 0.03 | duvelisib 0.059 | gandotinib 0.002 | tozasertib 0.102 | doramapimod -0.035 | bafetinib 0.009 | [2] -0.017

CALB1 (UniProt P05937)
inactive: lapatinib -0.006 | pictilisib -0.012 | crizotinib 0.066 | [1] 0.149 | duvelisib -0.003 | gandotinib -0.086 | tozasertib 0.014 | doramapimod -0.014 | bafetinib 0.023 | [2] -0.097

C1orf122 (UniProt Q6ZSJ8)
inactive: lapatinib 0.049 | pictilisib -0.011 | crizotinib -0.104 | [1] -0.031 | duvelisib 0.025 | gandotinib 0.04 | tozasertib -0.013 | doramapimod 0.018 | bafetinib 0.042 | [2] -0.019

C1QBP (UniProt Q07021)
inactive: lapatinib 0.019 | pictilisib 0.047 | crizotinib 0.019 | [1] 0.024 | duvelisib 0 | gandotinib -0.026 | tozasertib -0.007 | doramapimod 0.004 | bafetinib -0.009 | [2] -0.068

C1D (UniProt Q13901)
inactive: lapatinib -0.063 | pictilisib 0.039 | crizotinib -0.092 | [1] 0.028 | duvelisib -0.008 | gandotinib -0.012 | tozasertib -0.037 | doramapimod -0.029 | bafetinib 0.016 | [2] -0.032

Taken from above (2 entries):
C15orf41 (UniProt Q9Y2V0)
inactive: lapatinib -0.078 | pictilisib 0.007 | crizotinib -0.033 | [1] 0.03 | duvelisib 0.059 | gandotinib 0.002 | tozasertib 0.102 | doramapimod -0.035 | bafetinib 0.009 | [2] -0.017

CALB1 (UniProt P05937)
inactive: lapatinib -0.006 | pictilisib -0.012 | crizotinib 0.066 | [1] 0.149 | duvelisib -0.003 | gandotinib -0.086 | tozasertib 0.014 | doramapimod -0.014 | bafetinib 0.023 | [2] -0.097

(next part)

CAMLG (UniProt P49069)
inactive: lapatinib 0.009 | pictilisib -0.039 | crizotinib 0.014 | [1] 0.179 | duvelisib -0.001 | gandotinib -0.058 | tozasertib -0.037 | doramapimod -0.005 | bafetinib 0 | [2] -0.12

BZW1 isoform 3 (UniProt Q7L1Q6)
inactive: lapatinib -0.033 | pictilisib 0.018 | crizotinib 0.017 | [1] -0.054 | duvelisib 0.007 | gandotinib -0.091 | tozasertib 0.002 | doramapimod 0.003 | bafetinib -0.022 | [2] 0.039

BUB3 (UniProt O43684)
inactive: lapatinib 0.022 | pictilisib -0.026 | crizotinib 0.044 | [1] -0.046 | duvelisib 0.019 | gandotinib 0.013 | tozasertib -0.009 | doramapimod 0.079 | bafetinib -0.024 | [2] 0.019

C5orf51 (UniProt A6NDU8)
inactive: lapatinib 0.018 | pictilisib -0.003 | crizotinib -0.024 | [1] 0.039 | duvelisib -0.023 | gandotinib -0.143 | tozasertib -0.037 | doramapimod -0.027 | bafetinib -0.031 | [2] -0.037

C9orf40 (UniProt Q8IXQ3)
inactive: lapatinib 0.021 | pictilisib -0.039 | crizotinib 0.001 | [1] -0.002 | duvelisib 0.009 | gandotinib 0.04 | tozasertib -0.01 | doramapimod -0.041 | bafetinib -0.039 | [2] -0.029

CAPZB isoform 2 (UniProt P47756)
inactive: lapatinib 0.021 | pictilisib 0.051 | crizotinib 0.023 | [1] -0.032 | duvelisib 0.06 | gandotinib 0.011 | tozasertib -0.001 | doramapimod -0.027 | bafetinib 0.115 | [2] 0.017

C19orf54 (UniProt Q5BKX5)
inactive: lapatinib -0.003 | pictilisib -0.089 | crizotinib -0.019 | [1] -0.011 | duvelisib -0.076 | gandotinib -0.046 | tozasertib -0.008 | doramapimod -0.036 | bafetinib -0.01 | [2] 0.027

C1orf50 (UniProt Q9BV19)
inactive: lapatinib 0.051 | pictilisib -0.108 | crizotinib 0.021 | [1] 0.069 | duvelisib -0.091 | gandotinib 0 | tozasertib 0.095 | doramapimod -0.033 | bafetinib -0.116 | [2] -0.02

C12orf45 (UniProt Q8N5I9)
inactive: lapatinib -0.027 | pictilisib -0.031 | crizotinib 0.042 | duvelisib -0.014 | gandotinib 0.148 | tozasertib -0.044 | doramapimod -0.023 | bafetinib 0.001 | [2] 0.072
active: [1] -0.269

C11orf98 (UniProt E9PRG8)
inactive: lapatinib -0.039 | pictilisib 0.018 | crizotinib 0.01 | [1] -0.017 | duvelisib 0.012 | gandotinib -0.017 | tozasertib 0.041 | doramapimod -0.005 | bafetinib 0.013 | [2] 0.021

CAPZA1 (UniProt P52907)
inactive: lapatinib 0.002 | pictilisib -0.003 | crizotinib -0.003 | [1] -0.021 | duvelisib 0.001 | gandotinib 0.074 | tozasertib -0.046 | doramapimod -0.015 | bafetinib 0.006 | [2] 0.032

CAPZB (UniProt P47756)
inactive: lapatinib -0.014 | pictilisib 0.001 | crizotinib 0.035 | [1] 0.148 | duvelisib 0.001 | gandotinib -0.017 | tozasertib -0.019 | doramapimod -0.012 | bafetinib 0.024 | [2] -0.061

C8orf76 (UniProt Q96K31)
inactive: lapatinib 0 | pictilisib 0.063 | crizotinib -0.002 | [1] 0.017 | duvelisib 0.046 | gandotinib 0.015 | tozasertib -0.021 | doramapimod 0.021 | bafetinib 0.04 | [2] -0.005
